Laboratory results published in the supplement of paper PMC10060354, “Discovery of a small molecule ligand of FRS2 that inhibits invasion and tumor growth” (Cellular Oncology, 2022).
“And” between values parts separate entries of the source, which are not always exact repeats. Identical values can stand only once. Many values rest on one well or one pass, so single values are uncertain.

The chains behind the UniProt entries cited, without tags or fusion partners. Where a name states a change or a piece, a line headed by the entry shows the natural chain unless it says otherwise.
UniProt Q15042: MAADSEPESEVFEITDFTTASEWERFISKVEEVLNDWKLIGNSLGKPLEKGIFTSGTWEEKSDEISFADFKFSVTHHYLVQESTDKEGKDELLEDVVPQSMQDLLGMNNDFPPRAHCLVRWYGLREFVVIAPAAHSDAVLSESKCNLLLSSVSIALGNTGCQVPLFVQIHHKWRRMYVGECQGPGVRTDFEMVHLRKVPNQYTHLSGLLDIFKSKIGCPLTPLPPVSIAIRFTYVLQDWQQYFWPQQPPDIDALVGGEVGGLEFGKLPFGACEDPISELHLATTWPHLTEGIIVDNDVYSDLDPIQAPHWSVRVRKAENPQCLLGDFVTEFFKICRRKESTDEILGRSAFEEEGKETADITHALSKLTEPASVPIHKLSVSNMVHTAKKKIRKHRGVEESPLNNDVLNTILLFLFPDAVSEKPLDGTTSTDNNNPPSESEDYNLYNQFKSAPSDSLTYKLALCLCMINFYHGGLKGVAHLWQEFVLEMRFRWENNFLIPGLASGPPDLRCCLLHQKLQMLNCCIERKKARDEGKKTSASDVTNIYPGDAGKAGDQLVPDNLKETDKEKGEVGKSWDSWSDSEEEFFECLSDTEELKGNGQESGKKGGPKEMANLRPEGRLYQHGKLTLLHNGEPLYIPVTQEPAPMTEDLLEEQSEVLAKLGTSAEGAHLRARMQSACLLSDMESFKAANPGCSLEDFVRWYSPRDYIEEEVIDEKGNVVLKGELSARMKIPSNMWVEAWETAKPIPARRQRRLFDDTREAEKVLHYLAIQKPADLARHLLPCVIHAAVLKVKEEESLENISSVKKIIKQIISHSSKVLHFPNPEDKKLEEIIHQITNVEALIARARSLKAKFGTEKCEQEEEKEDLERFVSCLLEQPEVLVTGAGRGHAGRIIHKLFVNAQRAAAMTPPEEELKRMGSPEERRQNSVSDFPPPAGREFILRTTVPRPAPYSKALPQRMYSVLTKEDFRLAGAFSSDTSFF
UniProt Q8NBQ5: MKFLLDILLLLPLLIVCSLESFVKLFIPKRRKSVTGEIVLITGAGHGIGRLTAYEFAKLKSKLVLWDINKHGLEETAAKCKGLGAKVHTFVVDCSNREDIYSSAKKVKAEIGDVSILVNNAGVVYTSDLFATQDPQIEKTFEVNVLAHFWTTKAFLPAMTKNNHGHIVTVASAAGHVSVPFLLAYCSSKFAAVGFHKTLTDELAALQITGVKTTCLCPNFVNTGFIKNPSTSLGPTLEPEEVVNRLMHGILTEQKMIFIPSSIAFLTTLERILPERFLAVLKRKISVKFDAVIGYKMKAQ
UniProt Q969U7: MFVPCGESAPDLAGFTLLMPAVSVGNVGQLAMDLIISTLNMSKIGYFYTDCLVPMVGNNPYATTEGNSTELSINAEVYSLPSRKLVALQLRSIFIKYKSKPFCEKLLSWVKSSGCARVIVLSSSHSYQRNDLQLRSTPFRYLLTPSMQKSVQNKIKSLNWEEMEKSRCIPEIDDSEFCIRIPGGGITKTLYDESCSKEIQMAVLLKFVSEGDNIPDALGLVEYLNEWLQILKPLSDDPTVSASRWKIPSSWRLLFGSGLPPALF
UniProt P54762: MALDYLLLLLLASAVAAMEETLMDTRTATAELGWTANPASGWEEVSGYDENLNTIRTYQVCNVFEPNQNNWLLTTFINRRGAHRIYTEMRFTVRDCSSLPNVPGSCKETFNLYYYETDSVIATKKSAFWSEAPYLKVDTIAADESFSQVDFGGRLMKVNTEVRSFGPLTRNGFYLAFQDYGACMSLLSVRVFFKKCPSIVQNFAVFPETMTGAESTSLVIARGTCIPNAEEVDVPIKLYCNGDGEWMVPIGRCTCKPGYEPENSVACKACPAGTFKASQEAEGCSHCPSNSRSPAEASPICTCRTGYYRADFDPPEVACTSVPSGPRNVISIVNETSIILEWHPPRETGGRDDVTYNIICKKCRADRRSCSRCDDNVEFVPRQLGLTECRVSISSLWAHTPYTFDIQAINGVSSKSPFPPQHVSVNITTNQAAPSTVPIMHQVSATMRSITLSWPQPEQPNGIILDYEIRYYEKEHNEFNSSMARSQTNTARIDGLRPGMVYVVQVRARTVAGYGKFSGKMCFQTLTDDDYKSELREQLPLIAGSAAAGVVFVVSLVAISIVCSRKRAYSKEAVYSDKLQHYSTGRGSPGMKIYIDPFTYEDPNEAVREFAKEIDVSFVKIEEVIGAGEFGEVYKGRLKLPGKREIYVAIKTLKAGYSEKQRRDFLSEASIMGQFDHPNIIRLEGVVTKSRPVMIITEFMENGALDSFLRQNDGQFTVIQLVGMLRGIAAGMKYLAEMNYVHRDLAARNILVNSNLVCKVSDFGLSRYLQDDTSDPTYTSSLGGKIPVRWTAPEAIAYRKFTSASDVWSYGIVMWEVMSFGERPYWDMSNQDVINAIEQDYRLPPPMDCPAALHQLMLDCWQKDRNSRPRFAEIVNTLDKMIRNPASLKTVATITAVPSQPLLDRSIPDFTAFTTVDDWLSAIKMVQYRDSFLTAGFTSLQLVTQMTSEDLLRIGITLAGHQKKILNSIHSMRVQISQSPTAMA
UniProt Q96SK2: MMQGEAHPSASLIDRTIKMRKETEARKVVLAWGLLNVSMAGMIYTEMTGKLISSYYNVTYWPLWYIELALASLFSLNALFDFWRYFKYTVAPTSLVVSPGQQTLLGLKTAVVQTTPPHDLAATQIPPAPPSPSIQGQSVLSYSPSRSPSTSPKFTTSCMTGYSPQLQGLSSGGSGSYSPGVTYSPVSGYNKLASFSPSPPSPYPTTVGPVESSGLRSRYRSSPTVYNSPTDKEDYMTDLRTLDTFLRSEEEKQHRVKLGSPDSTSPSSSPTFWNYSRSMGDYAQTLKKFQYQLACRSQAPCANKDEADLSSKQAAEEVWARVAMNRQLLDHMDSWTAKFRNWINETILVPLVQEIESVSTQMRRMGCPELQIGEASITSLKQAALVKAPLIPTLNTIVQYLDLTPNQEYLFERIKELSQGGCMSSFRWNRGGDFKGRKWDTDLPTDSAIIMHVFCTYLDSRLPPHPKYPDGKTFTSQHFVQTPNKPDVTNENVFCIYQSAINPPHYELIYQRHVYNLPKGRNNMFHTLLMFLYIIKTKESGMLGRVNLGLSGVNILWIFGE
UniProt Q15631: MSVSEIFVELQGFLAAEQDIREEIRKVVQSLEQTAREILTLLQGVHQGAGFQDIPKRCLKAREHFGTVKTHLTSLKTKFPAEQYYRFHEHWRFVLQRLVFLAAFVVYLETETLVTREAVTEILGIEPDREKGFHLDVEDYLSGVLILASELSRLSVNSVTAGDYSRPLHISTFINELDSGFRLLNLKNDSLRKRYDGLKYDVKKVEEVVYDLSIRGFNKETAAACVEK
UniProt Q9Y3L3: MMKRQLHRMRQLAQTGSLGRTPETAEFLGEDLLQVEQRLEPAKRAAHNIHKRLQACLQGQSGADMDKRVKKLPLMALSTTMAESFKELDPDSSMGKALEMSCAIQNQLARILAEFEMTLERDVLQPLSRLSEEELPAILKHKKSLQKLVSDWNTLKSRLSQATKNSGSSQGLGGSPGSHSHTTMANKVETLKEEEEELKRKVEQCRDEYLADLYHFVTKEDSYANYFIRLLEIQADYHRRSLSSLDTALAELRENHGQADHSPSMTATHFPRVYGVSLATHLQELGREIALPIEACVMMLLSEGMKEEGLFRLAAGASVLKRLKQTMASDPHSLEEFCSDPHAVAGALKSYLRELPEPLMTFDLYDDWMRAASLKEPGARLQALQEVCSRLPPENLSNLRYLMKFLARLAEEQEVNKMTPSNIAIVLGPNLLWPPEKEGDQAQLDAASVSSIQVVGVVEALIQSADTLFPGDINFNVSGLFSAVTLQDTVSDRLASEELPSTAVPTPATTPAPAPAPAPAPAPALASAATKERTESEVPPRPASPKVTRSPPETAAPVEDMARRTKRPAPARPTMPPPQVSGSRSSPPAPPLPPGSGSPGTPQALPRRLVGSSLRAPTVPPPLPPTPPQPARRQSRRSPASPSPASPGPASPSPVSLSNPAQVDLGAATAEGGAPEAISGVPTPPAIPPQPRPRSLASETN
UniProt Q8IUR0, whole entry: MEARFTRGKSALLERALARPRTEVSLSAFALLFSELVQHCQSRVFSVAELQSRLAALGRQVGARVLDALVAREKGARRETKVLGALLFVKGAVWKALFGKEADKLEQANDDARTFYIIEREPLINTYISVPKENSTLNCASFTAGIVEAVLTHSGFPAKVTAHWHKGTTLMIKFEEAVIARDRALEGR
UniProt Q9Y5X3: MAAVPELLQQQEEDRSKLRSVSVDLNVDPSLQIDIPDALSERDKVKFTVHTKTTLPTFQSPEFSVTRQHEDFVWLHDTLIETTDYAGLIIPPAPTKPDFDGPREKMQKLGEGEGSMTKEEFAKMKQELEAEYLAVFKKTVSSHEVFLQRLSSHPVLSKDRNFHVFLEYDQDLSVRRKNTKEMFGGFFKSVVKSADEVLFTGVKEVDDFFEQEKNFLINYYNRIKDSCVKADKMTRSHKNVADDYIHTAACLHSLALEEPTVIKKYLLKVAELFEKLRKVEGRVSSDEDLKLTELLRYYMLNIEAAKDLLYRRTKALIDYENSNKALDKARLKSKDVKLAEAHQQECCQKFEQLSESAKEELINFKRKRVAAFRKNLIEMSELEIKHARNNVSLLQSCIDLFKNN
UniProt Q9Y2W2: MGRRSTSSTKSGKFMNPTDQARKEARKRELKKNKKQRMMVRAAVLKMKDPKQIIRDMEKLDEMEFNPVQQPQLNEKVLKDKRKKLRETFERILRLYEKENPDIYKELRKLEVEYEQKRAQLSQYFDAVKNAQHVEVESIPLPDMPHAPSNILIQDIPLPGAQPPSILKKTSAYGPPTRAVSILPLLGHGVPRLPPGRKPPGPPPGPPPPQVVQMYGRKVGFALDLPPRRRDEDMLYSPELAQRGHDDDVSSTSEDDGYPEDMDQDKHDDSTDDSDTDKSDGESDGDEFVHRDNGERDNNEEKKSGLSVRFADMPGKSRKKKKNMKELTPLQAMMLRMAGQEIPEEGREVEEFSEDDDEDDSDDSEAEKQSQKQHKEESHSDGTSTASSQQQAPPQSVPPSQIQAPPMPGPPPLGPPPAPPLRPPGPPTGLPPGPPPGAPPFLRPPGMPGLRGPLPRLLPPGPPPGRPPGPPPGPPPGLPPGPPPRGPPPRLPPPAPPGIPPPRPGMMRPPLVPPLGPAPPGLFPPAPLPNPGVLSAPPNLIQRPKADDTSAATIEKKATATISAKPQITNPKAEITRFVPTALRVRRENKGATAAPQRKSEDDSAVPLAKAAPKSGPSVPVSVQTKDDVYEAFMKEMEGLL
UniProt P60981: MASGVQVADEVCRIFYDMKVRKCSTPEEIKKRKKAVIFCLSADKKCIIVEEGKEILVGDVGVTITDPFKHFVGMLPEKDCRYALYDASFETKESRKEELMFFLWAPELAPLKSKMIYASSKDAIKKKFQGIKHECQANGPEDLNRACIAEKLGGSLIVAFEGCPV
UniProt Q13206, whole entry: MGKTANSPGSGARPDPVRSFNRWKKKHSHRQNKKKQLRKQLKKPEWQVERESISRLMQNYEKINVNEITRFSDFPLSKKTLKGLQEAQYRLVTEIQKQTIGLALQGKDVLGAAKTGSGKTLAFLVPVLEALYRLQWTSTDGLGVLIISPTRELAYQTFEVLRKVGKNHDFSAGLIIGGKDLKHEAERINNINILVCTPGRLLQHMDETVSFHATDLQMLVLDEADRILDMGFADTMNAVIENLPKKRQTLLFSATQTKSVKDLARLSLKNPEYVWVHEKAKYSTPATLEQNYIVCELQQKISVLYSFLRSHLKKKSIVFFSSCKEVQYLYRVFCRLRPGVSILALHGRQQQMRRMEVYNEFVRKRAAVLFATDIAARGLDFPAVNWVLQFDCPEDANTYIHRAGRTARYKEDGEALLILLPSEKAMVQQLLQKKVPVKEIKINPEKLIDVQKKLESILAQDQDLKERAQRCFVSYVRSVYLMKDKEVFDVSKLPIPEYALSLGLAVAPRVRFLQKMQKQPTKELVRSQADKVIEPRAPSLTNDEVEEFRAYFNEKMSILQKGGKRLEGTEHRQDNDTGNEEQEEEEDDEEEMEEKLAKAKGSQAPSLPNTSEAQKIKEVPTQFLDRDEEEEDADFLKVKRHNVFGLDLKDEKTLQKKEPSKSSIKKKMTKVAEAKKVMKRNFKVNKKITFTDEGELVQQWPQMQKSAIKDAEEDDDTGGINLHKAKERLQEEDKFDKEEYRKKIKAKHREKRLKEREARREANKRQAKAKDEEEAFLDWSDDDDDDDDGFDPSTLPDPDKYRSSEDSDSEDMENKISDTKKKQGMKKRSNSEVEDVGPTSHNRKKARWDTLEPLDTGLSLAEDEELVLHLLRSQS
UniProt P46926: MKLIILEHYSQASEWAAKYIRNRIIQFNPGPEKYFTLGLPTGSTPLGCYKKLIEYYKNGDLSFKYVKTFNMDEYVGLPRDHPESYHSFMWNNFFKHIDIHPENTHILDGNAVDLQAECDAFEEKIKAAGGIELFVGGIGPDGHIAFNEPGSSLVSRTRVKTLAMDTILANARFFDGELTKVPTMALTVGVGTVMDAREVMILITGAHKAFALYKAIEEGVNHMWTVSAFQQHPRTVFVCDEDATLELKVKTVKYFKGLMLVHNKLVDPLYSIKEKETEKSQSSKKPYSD

Compound: [O-][N+](C(C1=C(C(O)=C2)NC(C(C=C3)=CC=C3Cl)C4C1C=CC4)=C2Cl)=O
Experiment: melting temperature shift (compound 7 minus DMSO); higher = compound stabilises the protein
Settings: 10 µM
Experimental: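 Thermal proteome profiling (TMT mass spectrometry) in intact DAOY medulloblastoma cells or DAOY lysates treated with 10 µM compound 7 or DMSO, heated at 10 temperatures from 40.5 to 73.8 °C for 3 min. Melting curves were fitted with the Bioconductor TPP package, and the melting point difference between compound and vehicle is reported per protein (single curve per condition).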

[1] = system: DAOY cell lysate, treatment time: 20 min, 4 °C
[2] = system: intact DAOY cells, treatment time: 90 min, 37 °C

Target	melting temperature shift [1]	melting temperature shift [2] [°C]
UBE2L3 (UniProt P68036)	-1.31 °C	-0.548
UniProt Q9UJ68	-0.26 °C	-1.95
ZC3HC1 (UniProt Q86WB0)	-0.719 °C	-1.08
UBR4 (UniProt Q5T4S7)	-0.557 °C	-0.403
UniProt P00167	1.61 °C	–
KLHDC4 (UniProt Q8TBB5)	-0.249 °C	–
UniProt Q96A08	-0.107 °C	-1.67
DAP (UniProt P51397)	0.162 °C	–
ANP32A (UniProt P39687)	-2.35 °C	0.705
UniProt Q01196	2.49 °C	0.136
PNN (UniProt Q9H307)	0.788 °C	3.5
RHOG (UniProt P84095)	1.11 °C	-0.814
ALG13 (UniProt Q9NP73)	0.665 °C	–
ETFDH (UniProt Q16134)	1.71 °C	–
RAB3GAP1 (UniProt Q15042)	-0.593 °C	-0.296
UniProt Q969P6	–	0.296
GTF3C6 (UniProt Q969F1)	1.03 °C	–
TMA16 (UniProt Q96EY4)	0.255 °C	–
HSD17B11 (UniProt Q8NBQ5)	1.15 °C	-1.01
ATAD1 (UniProt Q8NBU5)	-0.254 °C	0.275
CLEC16A (UniProt Q2KHT3)	–	1.57
TTC37 (UniProt Q6PGP7)	-0.417 °C	–
MOGS (UniProt Q13724)	0.928 °C	-0.264
VAC14 (UniProt Q08AM6)	-0.102 °C	-0.12

Target	melting temperature shift [1]	melting temperature shift [2] [°C]
DPP9 (UniProt Q86TI2)	-0.627 °C	-0.137
PSMG2 (UniProt Q969U7)	0.159 °C	-0.609
HTATSF1 (UniProt O43719)	-0.337 °C	-0.733
HMGB2 (UniProt P26583)	0.818 °C	–
GCLM (UniProt P48507)	-0.299 °C	0.157
UniProt P52179	–	1.47
SWAP70 (UniProt Q9UH65)	-0.55 °C	0.339
EPHB1 (UniProt P54762)	–	-0.832
TMEM209 (UniProt Q96SK2)	1.52 °C	-1.1
TSN (UniProt Q15631)	-1.09 °C	-1.05
ATXN2L (UniProt Q8WWM7)	-0.128 °C	-0.276
NUDT16 (UniProt Q96DE0)	0.145 °C	-1.68
PLEKHF2 (UniProt Q9H8W4)	-0.927 °C	-0.331
PHACTR2 (UniProt O75167)	1.17 °C	–
UniProt O60287	-0.382 °C	–
HSPA13 (UniProt P48723)	0.812 °C	0.197
PNO1 (UniProt Q9NRX1)	0.694 °C	0.389
DPH7 (UniProt Q9BTV6)	–	0.112
EBNA1BP2 (UniProt Q99848)	0.715 °C	–
SNX1 (UniProt Q13596)	-0.643 °C	-1.42
TSR3 (UniProt Q9UJK0)	-0.293 °C	–
RAB21 (UniProt Q9UL25)	0.46 °C	-0.287
KSR1 (UniProt Q8IVT5)	-1.63 °C	-2.54
UniProt P04275	–	-1.44

Target	melting temperature shift [1]	melting temperature shift [2] [°C]
LAMB2 (UniProt P55268)	0.899 °C	-0.359
ANXA7 (UniProt P20073)	-0.547 °C	0.293
UniProt Q9Y3L3	–	-0.914
UniProt Q96N64	-1.12 °C	–
TRAPPC5 (UniProt Q8IUR0)	-1.28 °C	0.739
UniProt Q14119	–	-1.29
LMF2 (UniProt Q9BU23)	–	-0.966
ARL6 (UniProt Q9H0F7)	-0.0565 °C	–
UniProt Q8TAA3	–	-0.268
MEMO1 (UniProt Q9Y316)	-0.0142 °C	-0.614
SRP68 (UniProt Q9UHB9)	-0.121 °C	-0.713
ATP1B1 (UniProt P05026)	2.21 °C	-0.568
SNX5 (UniProt Q9Y5X3)	-0.101 °C	-1.99
MIS12 (UniProt Q9H081)	-2.56 °C	–
MDH1 (UniProt P40925)	-1.59 °C	0.895
MET (UniProt P08581)	0.661 °C	-1.42
UniProt Q9P0M6	1.72 °C	0.485
NUP205 (UniProt Q92621)	0.289 °C	-0.923
Q8IXS6 (UniProt Q9Y2D5)	0.73 °C and -3.7 °C	–
BIN3 (UniProt Q9NQY0)	-1.13 °C	0.058
WBP11 (UniProt Q9Y2W2)	-1.36 °C	-1.33
BCKDHB (UniProt P21953)	-0.362 °C	–
UniProt Q15052	–	-2.52
SPTBN1 (UniProt Q01082)	0.0574 °C	0.748

Target	melting temperature shift [1]	melting temperature shift [2] [°C]
UniProt P36406	–	-2.62
LUZP1 (UniProt Q86V48)	0.528 °C	1.17
TRAPPC13 (UniProt A5PLN9)	0.627 °C	0.131
RPL11 (UniProt P62913)	0.113 °C	-1.09
ARHGAP18 (UniProt Q8N392)	-0.287 °C	-1.27
UHRF1BP1L (UniProt A0JNW5)	0.0213 °C	–
HPRT1 (UniProt P00492)	-3.65 °C	–
HEATR6 (UniProt Q6AI08)	-1.57 °C	–
UniProt A6NIN4	0.215 °C	0.292
TYSND1 (UniProt Q2T9J0)	-0.406 °C	–
UniProt Q8N612	1.41 °C	–
UniProt Q9P2H0	–	0.595
DNMBP (UniProt Q6XZF7)	0.719 °C	0.598
YPEL5 (UniProt P62699)	0.0726 °C	1.39
UniProt Q9NSQ0	0.185 °C	–
FLAD1 (UniProt Q8NFF5)	-0.46 °C	-1.43
MAN2B1 (UniProt O00754)	1.25 °C	–
TOPBP1 (UniProt Q92547)	0.25 °C	–
UniProt Q9UL45	-0.906 °C	–
SACS (UniProt Q9NZJ4)	0.869 °C	1.31
UniProt Q86XF0	–	0.111
UniProt Q9UJC5	0.242 °C	-0.0368
UniProt Q00266	–	-2.02
TCEAL1 (UniProt Q15170)	–	0.258

Target	melting temperature shift [1]	melting temperature shift [2] [°C]
TMEM65 (UniProt Q6PI78)	0.483 °C	0.191
USF1 (UniProt P22415)	–	-1.51
PIGT (UniProt Q969N2)	0.992 °C	-0.528
DSTN (UniProt P60981)	-0.308 °C	1.16
UniProt Q9H5V8	-0.561 °C	0.898
UniProt Q13206	0.474 °C	–
PPME1 (UniProt Q9Y570)	-0.332 °C	-0.12
UniProt Q9H427	–	-0.156
UniProt O96028	2.15 °C	–
YTHDF1 (UniProt Q9BYJ9)	0.0661 °C	1.25
ADPRHL2 (UniProt Q9NX46)	0.588 °C	0.241
PDSS2 (UniProt Q86YH6)	-0.329 °C	-0.738
MRPS35 (UniProt P82673)	0.681 °C	-1.21
PSMD3 (UniProt O43242)	-0.515 °C	-1.32
UniProt Q9Y6K8	-0.317 °C	–
VIPAS39 (UniProt Q9H9C1)	-0.614 °C	-0.271
SMARCE1 (UniProt Q969G3)	-0.276 °C	-0.887
GNPDA1 (UniProt P46926)	-0.596 °C	-0.788
UniProt Q8IZQ5	–	3.81
USP36 (UniProt Q9P275)	0.197 °C	–
UGT8 (UniProt Q16880)	1.1 °C	–
PCIF1 (UniProt Q9H4Z3)	-1.49 °C	–
PRMT7 (UniProt Q9NVM4)	-0.0233 °C	–
FGD4 (UniProt Q96M96)	-1.79 °C	–
